The values below come from article PMC6471618, “Comparison of the Sulfonamide Inhibition Profiles of the α-Carbonic Anhydrase Isoforms (SpiCA1, SpiCA2 and SpiCA3) Encoded by the Genome of the Scleractinian Coral Stylophora pistillata” (Marine Drugs, 2019).

By UniProt entry, the sequences of proteins in these tests, tags left out.
UniProt A0A1B0Y357, entry or part of it: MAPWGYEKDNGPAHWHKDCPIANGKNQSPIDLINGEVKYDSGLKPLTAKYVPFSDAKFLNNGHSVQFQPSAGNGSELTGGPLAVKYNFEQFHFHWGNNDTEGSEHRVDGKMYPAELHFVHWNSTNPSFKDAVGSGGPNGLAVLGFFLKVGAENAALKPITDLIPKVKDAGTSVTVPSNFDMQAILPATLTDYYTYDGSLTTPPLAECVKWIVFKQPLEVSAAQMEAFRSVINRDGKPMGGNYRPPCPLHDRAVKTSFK

The assay addresses SpiCA3 (Stylophora pistillata, UniProt A0A1B0Y357). It is filed as biochemical. The conditions noted are these: recombinant coral isoform, stopped-flow CO2 hydration, 20 mM TRIS pH 8.3, 15 min preincubation; errors 5–10%, 3 assays. As for the experimental part: An Applied Photophysics stopped-flow instrument (Leatherhead, Surrey (UK)) has been used for assaying the CA catalyzed CO2 hydration activity. […] The un-catalyzed rates were determined in the same manner and subtracted from the total observed rates. […] The inhibition constants were obtained by non-linear least-squares methods using PRISM 3 and the Cheng-Prusoff equation, as reported earlier, and represent the mean from at least three different determinations. All CA isoforms were recombinant ones obtained in-house. All salts/small molecules were of the highest purity available, from Sigma-Aldrich (Milan, Italy).

For the compound `CCN[C@H]1C[C@H](C)S(=O)(=O)c2sc(S(N)(=O)=O)cc21` [DZA, Dorzolamide], the Ki stood at 354 nM.

One may read the Ki as a measure of affinity in units of concentration, obtained from inhibition or displacement.
